This experiment can be described thus: qHTS Assay for Lipid Storage Modulators in Drosophila S3 Cells.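 On cell number change: cells counted by Cell Tracker Red CMTPX staining in the red channel.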 The following applies: BODIPY lipid droplet fluorescence, 18-24 h; for cell number change: measured here: cell count max response, cells fed with added oleic acid. In a few lines:
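Drosophila S3 cells loaded with oleic acid (400 uM, as added) and compounds at several concentrations; lipid droplets imaged by 488-nm laser-scanning cytometry, 500–530 nm intensity and object ratio to cell channel. Percent activity normalized to 20 uM Triacsin C.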
For orientation: In qHTS, concentration-response curves come from the screen itself.

Where [1] appears, read: measured here: cell number channel AC50, cells fed with added oleic acid.
The mark [2] stands for this setting: measured here: lipid fluorescence (Fed channel) AC50, cells fed with added oleic acid.

The list shows a part of the results. Shown are side measurements of this screen, not its main read-out; they come without a call. Most of these compounds were active or inconclusive in the main read-out, so they are no random draw. Potencies come from curve fits of mixed quality, noted in brackets.

The values below come from PubChem BioAssay AID2685 (National Center for Advancing Translational Sciences (NCATS), 2010).

In the case of `O=C(CCl)N(c1ccccc1)c1c[nH]c2ccccc12`, the cell number change is -23.4%.

Usually AC50 stands for the midpoint of the concentration-response curve, whichever way the signal moves. Read a high AC50 as weaker potency. Consider `Clc1ccc(CNc2ccc(N3CCN(Cc4ccccc4)CC3)cc2)cc1`, for which the cell number change is -48.6%. Also, the AC50 under setting [1] was 16.4 µM [falling, partial curve, poor fit]. Under setting [2], the half-maximal activity concentration (AC50) was 29.1 µM [falling, single point].

As to `CSc1ccc(C2CC(=O)Nc3nc(SC)[nH]c(=O)c32)cc1` (stereo not drawn), the cell number change stood at 12.5%.

For the compound `S=c1[nH]nc(-c2ccccc2)n1Cc1ccccc1`, the cell number change turned out to be 21.6%. For the same compound, the AC50 under setting [2] was 3.66 µM [rising, partial curve].

`CCCNC(=O)c1ccc(N2CCC3(CC2)CC(c2ccccc2)=NO3)c([N+](=O)[O-])c1`: the cell number change was determined as 7.19%. For the same compound, the AC50 under setting [2] is 0.13 µM [falling, full curve, poor fit].

As for `Cc1ccccc1NC(=O)COC(=O)CCC(=O)c1cccs1`, the AC50 under setting [1] is 0.0058 µM [falling, full curve, poor fit].

`Cc1ccc(C)c(S(=O)(=O)N2CCCCC2CCNC(=O)C(=O)NCc2ccccn2)c1` (stereo not drawn): the half-maximal activity concentration (AC50) by setting is: under setting [1], 2.31 µM [falling, single point]; under setting [2], 7.31 µM [falling, partial curve].

Turning to `Cc1nc2c(c(=O)n1CCC(C)C)c1nc3ccccc3nc1n2Cc1ccc2c(c1)OCO2`, the cell number change turned out to be 23.6%. Moreover, the concentration at half-maximal activity (AC50) under setting [2] was 0.651 µM [rising, single point].

On to `Cc1cc(=O)n2nc(-c3ccccc3)sc2c1C#N`, for which the cell number change was -5.98%. Further, the AC50 under setting [2] is 0.517 µM [rising, full curve, poor fit].

Turning to `O=C(c1c(F)cccc1F)N1CCCC(c2nc(-c3ccc(F)cc3)no2)C1` (stereo not drawn), the cell number change stood at 4.4%. Under setting [2], the AC50 was 29.1 µM [falling, single point].

Turning to `Cc1cccc(/C=C2/Sc3ccc(C(=O)NCCCN4CCOCC4)cc3NC2=O)c1`, the cell number change is -26.2%. Further, the AC50 under setting [2] is 29.1 µM [falling, single point].

Regarding `CCCCn1c(SCC(=O)N2CCCC2)nnc1-c1ccccc1`, the AC50 under setting [1] was 2.91 µM [rising, partial curve].

For the compound `Cc1c(NC(=O)/C(C#N)=C/c2ccc(-c3cc(Cl)ccc3Cl)o2)c(=O)n(-c2ccccc2)n1C`, the cell number change amounted to 105%. For the same compound, the AC50 under setting [1] is 11.6 µM [rising, partial curve, poor fit]. Under setting [2], the AC50 is 0.291 µM [rising, full curve].

In the case of `COC(=O)C(NC(C)=O)(Nc1nc2ccc(C)cc2s1)C(F)(F)F` (stereo not drawn), the cell number change is -2.86%. The AC50 under setting [1] was 0.731 µM [falling, full curve]. Moreover, the half-maximal activity concentration (AC50) under setting [2] was 0.651 µM [falling, full curve].

On to `C=CCNc1oc(-c2ccc(OC)cc2)nc1C#N`, for which the cell number change worked out at 109%. For the same compound, the AC50 under setting [1] is 13 µM [rising, partial curve]. The AC50 under setting [2] was 2.91 µM [rising, partial curve, poor fit].

As to `Cc1nnc(NS(=O)(=O)c2ccc(N)cc2)s1`, the cell number change is 8.99%. Further, the AC50 under setting [2] is 1.3 µM [falling, full curve, poor fit].

`CC(C(=O)Nc1cccc(S(=O)(=O)N2CCOCC2)c1)N1CCN(C)CC1` (stereo not drawn): the cell number change is -11.3%. For the same compound, the AC50 under setting [1] is 0.00517 µM [falling, full curve, poor fit].

For `Cc1cccc(N=Nc2ccc(O)c3ncccc23)c1`, the cell number change was determined as 37.8%. For the same compound, the AC50 under setting [1] is 29.1 µM [rising, single point]. In addition, under setting [2], the AC50 is 10.3 µM [falling, partial curve, poor fit].

Turning to `Cc1nn(C)c(C)c1CNC(=O)Nc1ccc2c(c1)OCO2`, the AC50 under setting [1] is 0.58 µM [rising, single point].

Take `CCN(CC)S(=O)(=O)c1ccc(NC(=O)c2ccc(NS(C)(=O)=O)cc2)cc1`: the cell number change was 3.05%. Also, the AC50 under setting [2] was 6.51 µM [rising, partial curve].

Turning to `COc1cccc(-c2c(C(=O)N/N=C/C3CC=CCC3)nnn2-c2nonc2N)c1` (stereo not drawn), the cell number change is 32.5%.

As for `C=CCNC(=O)C1CCCN(S(C)(=O)=O)C1` (stereo not drawn), the cell number change is 11.6%. The AC50 under setting [2] is 0.058 µM [rising, full curve, poor fit].

Consider `O=C(NCC1CCCO1)c1cc([N+](=O)[O-])ccc1N1CCC(Cc2ccccc2)CC1` (stereo not drawn), for which the cell number change was -13.3%. In addition, the AC50 under setting [2] is 0.00517 µM [rising, full curve, poor fit].

Take `CCc1c(C)nc2nc(SCc3ccccc3Cl)[nH]n2c1=O`: the AC50 under setting [1] is 0.731 µM [rising, single point].

As to `CCCC(=O)Nc1ccc(C(=O)NCC2CCCO2)cc1` (stereo not drawn), the cell number change came out at 15.2%. For the same compound, the concentration at half-maximal activity (AC50) under setting [2] was 1.46 µM [falling, partial curve].

For the compound `Cc1nc(C)c(C(=O)C2=C(O)C(=O)N(CCN3CCOCC3)C2c2ccco2)s1` (stereo not drawn), the cell number change was -12.2%. The AC50 under setting [2] was 3.26 µM [falling, single point].

Turning to `O=C(Nc1ccc(F)cc1)C1CCCCC1`, the cell number change was -89.8%. Also, the AC50 under setting [1] is 20.6 µM [falling, partial curve, poor fit]. Further, under setting [2], the concentration at half-maximal activity (AC50) is 29.1 µM [falling, single point].

In the case of `Cc1ccccc1C(=O)NC(NCc1ccco1)C(Cl)(Cl)Cl` (stereo not drawn), the cell number change is -1.53%.

With `O=C(CCNS(=O)(=O)c1c(Cl)cccc1Cl)N1CCCC1`, the cell number change was -20.5%. Further, under setting [2], the AC50 was 0.259 µM [falling, full curve, poor fit].

Take `COc1ccc(CCC(=O)Nc2ccc(C(=O)c3ccncc3)cc2)cc1`: the cell number change is -15.7%. In addition, the AC50 under setting [2] is 0.291 µM [falling, partial curve, poor fit].

Consider `CC1CCN(C(=O)c2ccccc2NC(=O)c2cccs2)CC1`, for which the cell number change was -35.1%. The AC50 under setting [1] was 29.1 µM [falling, partial curve, poor fit]. Besides, the AC50 under setting [2] was 29.1 µM [rising, single point].

For `CC(=O)Nc1ccc(C(=O)Nc2ccc(S(=O)(=O)Nc3nccc(C)n3)cc2)cc1`, the cell number change stood at 28.5%. Further, the AC50 under setting [2] was 29.1 µM [rising, single point].

With `O=C(COc1ccc(S(=O)(=O)N2CCOCC2)cc1Cl)N1CCOCC1`, the cell number change came to 14.1%.

Regarding `CC(C)(C)NC(=O)CSc1nc(O)cc(=O)n1-c1ccccc1`, the cell number change is -12.2%.

Take `CCOc1ccc(S(=O)(=O)Nc2ccc(S(=O)(=O)N3CCOCC3)cc2)cc1`: the cell number change was -21.2%.

For the compound `Cn1c2cc(Br)sc2c2cnn(Cc3c(F)cccc3Cl)c(=O)c21`, the cell number change turned out to be 35.5%. Also, the AC50 under setting [1] is 32.6 µM [rising, single point]. Also, the concentration at half-maximal activity (AC50) under setting [2] was 0.82 µM [rising, partial curve].

In the case of `COc1ccc(-n2nnnc2SC(C)C(=O)NC2CCCC2)cc1` (stereo not drawn), the cell number change is 2.44%. The AC50 under setting [2] is 0.0326 µM [falling, full curve, poor fit].

`Cc1nnsc1NC(=O)OCCCl`: the cell number change is -18.1%. For the same compound, the AC50 under setting [2] is 6.51 µM [falling, single point].
